# Laboratory results as given in PubChem BioAssay AID504444 (National Center for Advancing Translational Sciences (NCATS), 2011).
# Among all 360,000 compounds or so, about 7,500 (2.1%) were called active. This list was built around the results that the source calls inconclusive (neither active nor inactive); the mix of calls is not that of the screen. Calls come from the whole dose curve; as a rule, active = well fitted inhibition curve with a large enough effect; inconclusive = small, poorly fitted or top-dose-only effect, or effect the other way; inactive = flat fitted curve, though single readings scatter. Where the call is inconclusive, the potency comes from a doubtful curve fit.
# Assay: Nrf2 qHTS screen for inhibitors; note: nearly all actives have a fitted effect of over 60% in size
# Conditions: A549 ARE-Fluc reporter, luciferase luminescence, 18-24 h; series mostly up to 46 µM
# Method in brief: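 Nrf2 activity is the BugLite luminescence, read 15 min after reagent at room temperature, following CellTiter-Fluor cytotoxicity readout (30 min, 37C). Compound titrations were applied for 18-24 h to 5000 A549 ARE_Fluc cells/well in 5% FBS OPTI-MEM.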
# Potency is the fitted concentration of half-maximal effect.
row,SMILES,Potency
1,COc1ccc(NC(=O)CSc2nnc3ccc(-c4ccncc4)nn23)cc1,inactive
2,O=C(Nc1nnc(-c2cccs2)o1)c1cc(-c2ccccc2)nc2ccccc12,"inconclusive: 14.6 µM [falling, partial curve]"
3,Cn1nc(C(=O)Nc2cccc(S(=O)(=O)N3CCCC3)c2)c2ccccc2c1=O,"inconclusive: 5.17 µM [falling, partial curve]"
4,CC1CCCN(S(=O)(=O)c2ccc(NC(=O)Cn3nnc(-c4ccccc4F)n3)cc2)C1 (configuration not stated),"inconclusive: 23.1 µM [falling, single point]"
5,COc1cccc(C=NNc2nc3ccccc3s2)c1OC,"inconclusive: 20.6 µM [activator, single point]"
6,O=C(CN(C(=O)c1csnn1)c1ccccc1)NCc1ccc2c(c1)OCO2,"inconclusive: 13 µM [activator, single point]"
7,CCOc1ccc(NC(=O)CC2C(=O)N(c3ccc(F)cc3)C(=O)N2CCc2sccc2C)cc1 (configuration not stated),"inconclusive: 29.1 µM [falling, single point]"
8,O=C(Nc1ccccc1)OCCc1ccccn1,"inconclusive: 4.61 µM [activator, full curve, poor fit]"
9,Brc1ccc2c(c1)[C@H]1OCC[C@H]1[C@@H](c1cccs1)N2,"inconclusive: 23.1 µM [activator, partial curve]"
10,COc1ccc(/C=C/C(=O)N2CCC(c3ccccc3)C2)cc1 (configuration not stated),"inconclusive: 0.82 µM [falling, full curve, poor fit]"
11,COc1ccc(CNc2nc3c(-c4ccc(C)cc4)nnn3c3ccccc23)cc1,"inconclusive: 23.1 µM [activator, single point]"
12,CN(C)C(=O)c1cc(C(=O)c2ccc(F)cc2F)c[nH]1,"inconclusive: 23.1 µM [activator, single point]"
13,COCCN(Cc1ccco1)C(=O)c1cc2c(Cl)nc3ccc(C)cc3c2s1,"inconclusive: 5.8 µM [falling, single point]"
14,O=C(Nc1ncccc1Cl)c1ccc2c(c1)OCCO2,"inconclusive: 7.31 µM [activator, partial curve]"
15,O=c1c2ccccc2sc2c(CO)ccc(NCCN3CCCCC3)c12,"inconclusive: 29.1 µM [falling, single point]"
16,Cn1c(CN2CCOCC2)nc2cc(NC(=O)c3ccc(Cl)cc3)ccc21,"inconclusive: 2.59 µM [falling, full curve]"
17,COC(=O)c1ccc(COC(=O)Cc2n[nH]c(=O)c3ccccc23)cc1,"inconclusive: 14.6 µM [activator, partial curve, poor fit]"
18,COC(=O)c1c(NC(NC(=O)CC(C)C)C(Cl)(Cl)Cl)sc2c1CCC2 (configuration not stated),"inconclusive: 29.1 µM [falling, single point]"
19,C=CC[C@H](CC(=O)N(CCO)Cc1ccccc1)C(=O)N[C@@H](COC(=O)[C@@H](CC=C)Cc1ccc(F)cc1)Cc1c[nH]c2ccccc12,active: 18.4 µM
20,CN1CCN(C(=O)c2ccc(CSc3ccc(Cl)cc3)cc2)CC1,"inconclusive: 32.6 µM [falling, single point]"
21,CCN(CC)S(=O)(=O)c1cc(NS(=O)(=O)c2c(Cl)cccc2Cl)ccc1C,"inconclusive: 25.9 µM [falling, single point]"

# Quoted from the listing:
# In Potency, CN1CCN(C(=O)c2ccc(CSc3ccc(Cl)cc3)cc2)CC1 shows inconclusive: 32.6 µM [falling, single point]
# In Potency, COC(=O)c1ccc(COC(=O)Cc2n[nH]c(=O)c3ccccc23)cc1 shows inconclusive: 14.6 µM [activator, partial curve, poor fit]

# (more compounds)

row,SMILES,Potency
1,COc1ccc(NC(=O)Cn2nc(SC)c(S(=O)(=O)c3ccc(C)cc3)c2N)cc1OC,"inconclusive: 14.6 µM [falling, partial curve, poor fit]"
2,c1ccc(C(Cc2nc(-c3cccnc3)no2)c2ccccc2)cc1,"inconclusive: 18.4 µM [falling, single point]"
3,CCOc1ccc(-n2nnc3c(=O)n(CC(=O)c4ccccc4)cnc32)cc1,"inconclusive: 23.1 µM [falling, single point]"
4,CC(=O)c1ccc(OCc2cc(C(=O)N(C)Cc3cc(C)no3)no2)cc1,"inconclusive: 5.8 µM [activator, full curve]"
5,Cc1ccc2c(c1)nnn2C1CCN(CC(=O)N(c2ccccc2)c2ccccc2)CC1,active: 14.6 µM
6,CCOc1ccc(NC(=O)C2CCCN(c3nn4cc(-c5ccc(OC)cc5)nc4s3)C2)cc1 (configuration not stated),active: 7.31 µM
7,Cc1cc(S(=O)(=O)c2ccc([N+](=O)[O-])cn2)ccc1Br,"inconclusive: 7.31 µM [falling, partial curve, poor fit]"
8,CCOC(=O)N1CCN(C(=O)c2cc(COc3cccc(C(C)=O)c3)on2)CC1,"inconclusive: 5.17 µM [activator, full curve]"
9,Cc1ccc(S(=O)(=O)N2CCCC(c3nc(-c4ccc(C)o4)no3)C2)cc1 (configuration not stated),"inconclusive: 16.4 µM [falling, single point]"
10,Cc1ccccc1OCCCn1c(CCNC(=O)C2CCCCC2)nc2ccccc21,"inconclusive: 20.6 µM [falling, single point]"
11,COc1ccc(CC(=O)N2CCN(c3cccc(C)c3C)CC2)cc1,"inconclusive: 32.6 µM [falling, single point]"
12,Cc1ccc(S(=O)(=O)N2[C@@H](c3ccc(Br)cc3)C(C(=O)O)=CC[C@H]2c2ccc(C(C)C)cc2)cc1,"inconclusive: 25.9 µM [falling, single point]"
13,COc1cccc(C(C(=O)NCC2CCCO2)N(C(=O)Cn2nnc3ccccc32)c2ccc(NC(C)=O)cc2)c1OC (configuration not stated),"inconclusive: 1.16 µM [activator, full curve, poor fit]"
14,Cc1ccc(S(=O)(=O)N2CCC(C(=O)NCCC3=CCCCC3)CC2)c(C)c1,"inconclusive: 32.6 µM [falling, partial curve, poor fit]"
15,O=C(Nc1ccc(N2CCN(C(=O)c3ccccc3)CC2)cc1)c1cccnc1,"inconclusive: 9.2 µM [falling, partial curve, poor fit]"
16,COCCNc1oc(/C=C/c2ccccc2)nc1C#N,"inconclusive: 9.2 µM [activator, partial curve]"
17,Cc1c(C(=O)Nc2ccc3oc(-c4cccnc4)nc3c2)oc2ccccc12,"inconclusive: 16.4 µM [falling, partial curve, poor fit]"
18,CN(C)c1oc(/C=C/c2ccccc2)nc1C#N,"inconclusive: 29.1 µM [activator, single point]"
19,Cc1ccc(NC(=O)c2sc3nc4n(c(=O)c3c2C)CCCCC4)c(Br)c1,"inconclusive: 29.1 µM [activator, single point]"
20,O=C(CN(C(=O)c1ccc(Cl)cc1Cl)N1C(=O)C2C3C=CC(C3)C2C1=O)c1ccc(F)cc1 (configuration not stated),"inconclusive: 29.1 µM [falling, single point]"
21,C=C(C)COc1ccc(-c2nc(N)ncc2Oc2ccc(OC)cc2)c(O)c1,inactive

# Arranged by heavy-atom count (ascending): twelve of the compounds above.
row,SMILES,Potency
18,CN(C)c1oc(/C=C/c2ccccc2)nc1C#N,"inconclusive: 29.1 µM [activator, single point]"
7,Cc1cc(S(=O)(=O)c2ccc([N+](=O)[O-])cn2)ccc1Br,"inconclusive: 7.31 µM [falling, partial curve, poor fit]"
2,c1ccc(C(Cc2nc(-c3cccnc3)no2)c2ccccc2)cc1,"inconclusive: 18.4 µM [falling, single point]"
4,CC(=O)c1ccc(OCc2cc(C(=O)N(C)Cc3cc(C)no3)no2)cc1,"inconclusive: 5.8 µM [activator, full curve]"
17,Cc1c(C(=O)Nc2ccc3oc(-c4cccnc4)nc3c2)oc2ccccc12,"inconclusive: 16.4 µM [falling, partial curve, poor fit]"
8,CCOC(=O)N1CCN(C(=O)c2cc(COc3cccc(C(C)=O)c3)on2)CC1,"inconclusive: 5.17 µM [activator, full curve]"
10,Cc1ccccc1OCCCn1c(CCNC(=O)C2CCCCC2)nc2ccccc21,"inconclusive: 20.6 µM [falling, single point]"
1,COc1ccc(NC(=O)Cn2nc(SC)c(S(=O)(=O)c3ccc(C)cc3)c2N)cc1OC,"inconclusive: 14.6 µM [falling, partial curve, poor fit]"
20,O=C(CN(C(=O)c1ccc(Cl)cc1Cl)N1C(=O)C2C3C=CC(C3)C2C1=O)c1ccc(F)cc1 (configuration not stated),"inconclusive: 29.1 µM [falling, single point]"
6,CCOc1ccc(NC(=O)C2CCCN(c3nn4cc(-c5ccc(OC)cc5)nc4s3)C2)cc1 (configuration not stated),active: 7.31 µM
12,Cc1ccc(S(=O)(=O)N2[C@@H](c3ccc(Br)cc3)C(C(=O)O)=CC[C@H]2c2ccc(C(C)C)cc2)cc1,"inconclusive: 25.9 µM [falling, single point]"
13,COc1cccc(C(C(=O)NCC2CCCO2)N(C(=O)Cn2nnc3ccccc32)c2ccc(NC(C)=O)cc2)c1OC (configuration not stated),"inconclusive: 1.16 µM [activator, full curve, poor fit]"

# (continued)

row,SMILES,Potency
1,COc1ccc2[nH]c(=O)c(CN(CC3CCCO3)C(=O)Nc3ccc(F)cc3)cc2c1 (configuration not stated),"inconclusive: 20.6 µM [falling, single point]"
2,CCCCOc1ccc(C(=O)Nc2ccc(CN3CCOCC3)cc2)cc1,"inconclusive: 29.1 µM [falling, single point]"
3,CCC1(c2ccc(F)cc2)NC(=O)N(CC(=O)N2CCN(S(=O)(=O)c3ccc(Cl)cc3)CC2)C1=O (configuration not stated),inactive
4,CCN(C1=NS(=O)(=O)c2ccccc21)N(CC)S(=O)(=O)c1ccc(C)cc1,"inconclusive: 0.13 µM [falling, partial curve, poor fit]"
5,CC(C)COc1ccc(-c2nnc(-c3ccncc3)o2)cc1,"inconclusive: 2.06 µM [activator, single point]"
6,O=C(Nc1cccc(NC(=O)c2cncc(Br)c2)c1)c1cncc(Br)c1,active: 8.2 µM
7,CCCCNC(=O)CCC(=O)Nc1ncc(-c2ccc(C)cc2)n1C,"inconclusive: 14.6 µM [activator, partial curve, poor fit]"
8,CC(C)Cn1c(=O)c(C(=O)Nc2ccccc2S(N)(=O)=O)c(O)c2ccccc21,"inconclusive: 20.6 µM [falling, single point]"
9,COc1ccc(/C(N)=N/OC(=O)CCC2CCCC2)cc1,"inconclusive: 13 µM [activator, partial curve]"
10,N=c1c2c(ncn1-c1ccccc1)Oc1ccc3ccccc3c1C2c1ccc2c(c1)OCCO2 (configuration not stated),"inconclusive: 20.6 µM [falling, single point]"
11,COc1cc(SC)ccc1C(=O)N1CCN(c2ccccc2OC)CC1,"inconclusive: 18.4 µM [activator, single point]"
12,COC(=O)c1cc2oc3ccccc3c2n1CC(=O)Nc1ccc(OC)c(OC)c1,inactive
13,Cc1cc(C)cc(-c2nc(-c3ccncc3)no2)c1,"inconclusive: 20.6 µM [activator, partial curve]"
14,O=C(NC1CCCCC1)c1ccc(CSc2nc3ccncc3n2Cc2ccccc2)cc1,"inconclusive: 18.4 µM [falling, single point]"
15,COc1ccc(/C=C/C(=O)OCC(=O)N2CCN(S(=O)(=O)c3ccc(C)cc3C)CC2)cc1OC,inactive
16,Cc1ccc2onc(CC(=O)N3CCN(c4ccc(Cl)cc4)CC3)c2c1,inactive
17,CCN(c1ccc(Cl)cc1)S(=O)(=O)c1nnc(NC(=O)c2ccco2)s1,"inconclusive: 20.6 µM [falling, partial curve]"
18,OC(c1ccccn1)(c1ccccn1)c1ccccn1,"inconclusive: 20.6 µM [falling, single point]"
19,CC(=O)CCc1oc2ccc(C)cc2c1-c1ccc(C)o1,"inconclusive: 6.51 µM [falling, single point]"
20,CCOc1ccc(N2C(=O)CC(Sc3nnnn3-c3ccccc3)C2=O)cc1 (configuration not stated),"inconclusive: 11.6 µM [falling, partial curve, poor fit]"
